Test results reported in article PMC8501101.
Results are given in words; binding and its absence hold for the method and conditions named. Binding seen in cells or lysates may run through a third protein. Some binding calls cover weakened binding; strength is not graded here.

Protein sequences, listed by entry. Tags and fused reporters are not part of them. Lines headed by an entry give the natural chain unless they say otherwise; changes in a name come on top. Residues count along the entry.
UniProt Q08211, residues 1-380: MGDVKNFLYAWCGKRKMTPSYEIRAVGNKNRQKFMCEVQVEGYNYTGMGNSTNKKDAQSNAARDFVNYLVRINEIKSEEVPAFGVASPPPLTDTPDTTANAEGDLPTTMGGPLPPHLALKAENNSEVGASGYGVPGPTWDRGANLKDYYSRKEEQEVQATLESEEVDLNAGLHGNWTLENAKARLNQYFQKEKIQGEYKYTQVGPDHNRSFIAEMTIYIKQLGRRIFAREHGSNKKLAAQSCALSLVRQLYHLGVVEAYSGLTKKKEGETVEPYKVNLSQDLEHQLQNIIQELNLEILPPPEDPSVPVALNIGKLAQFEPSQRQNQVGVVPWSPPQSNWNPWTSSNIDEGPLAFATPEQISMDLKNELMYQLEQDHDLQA
3×flag-labeled wild-type ITSN1-S (intersectin1 short isoform) (Q15811, residues 1-1220): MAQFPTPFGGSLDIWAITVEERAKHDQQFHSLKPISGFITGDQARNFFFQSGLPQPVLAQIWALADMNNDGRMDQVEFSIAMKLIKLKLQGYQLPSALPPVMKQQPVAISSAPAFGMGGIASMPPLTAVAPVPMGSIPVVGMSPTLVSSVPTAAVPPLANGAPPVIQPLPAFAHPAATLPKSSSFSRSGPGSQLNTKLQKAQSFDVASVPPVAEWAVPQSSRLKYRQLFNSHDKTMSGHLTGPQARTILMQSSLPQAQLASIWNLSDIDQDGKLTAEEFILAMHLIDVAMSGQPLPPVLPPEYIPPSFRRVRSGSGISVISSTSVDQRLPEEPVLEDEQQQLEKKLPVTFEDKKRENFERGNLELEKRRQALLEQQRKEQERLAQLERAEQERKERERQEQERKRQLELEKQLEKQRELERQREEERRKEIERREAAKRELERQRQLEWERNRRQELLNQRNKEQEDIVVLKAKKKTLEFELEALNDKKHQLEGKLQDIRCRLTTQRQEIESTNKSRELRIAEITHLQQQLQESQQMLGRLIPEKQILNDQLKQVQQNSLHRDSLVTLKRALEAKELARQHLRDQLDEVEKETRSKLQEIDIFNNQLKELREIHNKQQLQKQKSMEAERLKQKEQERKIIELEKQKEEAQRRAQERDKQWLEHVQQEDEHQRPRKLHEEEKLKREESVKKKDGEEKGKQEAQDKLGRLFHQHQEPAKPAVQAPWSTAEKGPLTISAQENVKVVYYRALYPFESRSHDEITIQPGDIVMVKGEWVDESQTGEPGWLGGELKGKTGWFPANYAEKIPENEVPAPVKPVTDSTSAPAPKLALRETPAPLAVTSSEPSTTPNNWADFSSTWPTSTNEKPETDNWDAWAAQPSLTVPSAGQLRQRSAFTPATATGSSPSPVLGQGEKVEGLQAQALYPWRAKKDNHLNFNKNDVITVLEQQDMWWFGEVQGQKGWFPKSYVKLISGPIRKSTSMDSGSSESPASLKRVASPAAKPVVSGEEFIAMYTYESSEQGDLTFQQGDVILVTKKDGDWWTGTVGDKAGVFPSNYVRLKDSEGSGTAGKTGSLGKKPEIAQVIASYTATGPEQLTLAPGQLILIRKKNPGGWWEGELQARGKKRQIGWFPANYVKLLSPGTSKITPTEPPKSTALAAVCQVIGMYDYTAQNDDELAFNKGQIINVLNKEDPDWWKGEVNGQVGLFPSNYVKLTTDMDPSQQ
ITSN1-S-EH1,2 (1–325 aa), HA and 3×flag-labeled (Q15811, residues 1-325): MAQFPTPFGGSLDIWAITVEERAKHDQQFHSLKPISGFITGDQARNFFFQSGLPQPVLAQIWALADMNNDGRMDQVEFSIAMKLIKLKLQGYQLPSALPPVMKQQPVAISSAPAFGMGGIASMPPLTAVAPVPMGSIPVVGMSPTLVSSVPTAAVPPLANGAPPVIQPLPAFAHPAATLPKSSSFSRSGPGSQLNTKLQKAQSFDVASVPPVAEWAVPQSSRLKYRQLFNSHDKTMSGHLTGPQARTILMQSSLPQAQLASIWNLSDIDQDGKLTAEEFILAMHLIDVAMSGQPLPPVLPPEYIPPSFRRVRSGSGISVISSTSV
UniProt O00443: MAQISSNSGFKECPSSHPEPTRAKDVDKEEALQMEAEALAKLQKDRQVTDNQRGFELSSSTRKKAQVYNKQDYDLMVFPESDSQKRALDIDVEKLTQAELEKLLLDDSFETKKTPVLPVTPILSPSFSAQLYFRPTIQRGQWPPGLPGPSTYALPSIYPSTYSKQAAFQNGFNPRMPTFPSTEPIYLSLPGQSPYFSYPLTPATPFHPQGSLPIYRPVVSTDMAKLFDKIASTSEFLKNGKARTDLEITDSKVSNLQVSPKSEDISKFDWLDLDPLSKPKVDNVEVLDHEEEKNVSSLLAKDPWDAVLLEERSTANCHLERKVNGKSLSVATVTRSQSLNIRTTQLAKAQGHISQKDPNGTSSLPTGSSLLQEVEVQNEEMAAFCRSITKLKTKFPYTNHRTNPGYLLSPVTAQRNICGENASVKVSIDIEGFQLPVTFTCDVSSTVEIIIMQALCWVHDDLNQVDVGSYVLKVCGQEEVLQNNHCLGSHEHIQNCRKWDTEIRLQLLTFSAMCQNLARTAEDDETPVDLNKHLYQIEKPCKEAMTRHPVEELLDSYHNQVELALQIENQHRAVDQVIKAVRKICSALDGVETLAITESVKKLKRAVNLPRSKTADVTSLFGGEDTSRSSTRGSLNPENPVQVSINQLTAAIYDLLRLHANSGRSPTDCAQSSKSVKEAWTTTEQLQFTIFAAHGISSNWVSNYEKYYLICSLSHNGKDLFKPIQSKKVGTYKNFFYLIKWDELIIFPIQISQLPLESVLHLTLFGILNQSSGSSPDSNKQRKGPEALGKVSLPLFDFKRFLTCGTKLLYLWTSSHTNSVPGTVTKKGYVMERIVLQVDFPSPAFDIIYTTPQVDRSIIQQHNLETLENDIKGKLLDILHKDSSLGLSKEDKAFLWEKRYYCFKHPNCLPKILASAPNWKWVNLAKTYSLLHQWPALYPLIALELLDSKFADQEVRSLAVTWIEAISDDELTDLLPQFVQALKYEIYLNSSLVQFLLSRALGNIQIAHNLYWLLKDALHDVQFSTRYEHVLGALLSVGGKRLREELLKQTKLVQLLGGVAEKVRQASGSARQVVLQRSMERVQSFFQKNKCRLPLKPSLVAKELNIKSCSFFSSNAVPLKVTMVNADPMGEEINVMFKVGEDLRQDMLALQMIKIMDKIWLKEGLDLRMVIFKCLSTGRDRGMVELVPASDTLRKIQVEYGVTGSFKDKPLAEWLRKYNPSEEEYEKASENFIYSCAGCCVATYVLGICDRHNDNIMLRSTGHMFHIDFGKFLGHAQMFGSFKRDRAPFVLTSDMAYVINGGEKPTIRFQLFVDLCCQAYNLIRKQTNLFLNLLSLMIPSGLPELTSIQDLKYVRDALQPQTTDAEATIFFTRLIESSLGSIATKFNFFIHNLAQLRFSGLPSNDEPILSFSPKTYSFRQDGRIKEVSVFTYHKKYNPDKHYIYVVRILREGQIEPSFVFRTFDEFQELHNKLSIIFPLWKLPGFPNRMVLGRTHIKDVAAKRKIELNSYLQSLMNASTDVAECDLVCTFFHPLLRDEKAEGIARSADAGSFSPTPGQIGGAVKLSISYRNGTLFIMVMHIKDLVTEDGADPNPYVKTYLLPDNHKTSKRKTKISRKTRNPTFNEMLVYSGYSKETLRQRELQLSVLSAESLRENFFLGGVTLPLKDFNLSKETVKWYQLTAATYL

Legend:
[1] = biological target: NDH II-NT (1–380 aa), HA and 3×flag-labeled (UniProt Q08211); test: co-IP; 3×flag and HA-labeled fragments of ITSN1-S or NDH II expressed in HEK-293T; cellular extracts, IP with anti-flag M2 affinity gel; Western blot for ITSN1-S, NDH II or PI3KC2α
[2] = biological target: 3×flag-labeled wild-type ITSN1-S (intersectin1 short isoform) (human) (UniProt Q15811); test: co-IP; IP from cell lysates with anti-flag M2 affinity gel (flag-tagged ITSN1-S), and for NDH II also with antibodies against NDH II or control IgG; Western blot
[3] = biological target: ITSN1-S-EH1,2 (1–325 aa), HA and 3×flag-labeled (human) (UniProt Q15811); test: co-IP; 3×flag and HA-labeled fragments of ITSN1-S or NDH II expressed in HEK-293T; cellular extracts, IP with anti-flag M2 affinity gel; Western blot for ITSN1-S, NDH II or PI3KC2α

Row | binding [1] | binding [2] | binding [3] | Substance
1 | binds | – | – | ITSN1-S (endogenous, HEK-293T) (from UniProt Q15811-2 1-1220)
2 | – | binds | binds | PI3KC2α (from UniProt O00443 1-1686)
